PubChem BioAssay AID1259308 – NCATS | 2017
Purpose: 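Genes whose loss raises luciferase production in HEK293 cells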 (primary screen). Cell system: human HEK293 embryonic kidney cells stably expressing firefly luciferase (HEK-CMV-Luc2-Hygro). Knock-down reagent: single siRNA against human genes, 0.8 pmol siRNA per well. Timing: 72 h. Detection: 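Reporter luminescence and viable-cell signal on separate replicate plates, given as percent of non-targeting control and median/MAD z-scores, plus per-cell luciferase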. Scale: total luciferase, z-score and total luciferase, % of control: higher = more reporter protein produced; luciferase per cell, z-score: higher = more reporter output per viable cell; viable cells, % of control: higher = more viable cells. Call rule: 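An siRNA counts as active if its total luciferase robust z-score exceeds 3; genes with two or more such siRNAs out of three were retested with fresh siRNAs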. Meaning of the calls: active = raised luciferase; inactive = no rise.
Here is an unselected part of about 59,000 reagents tested. In the full data, about 1,510 (2.6%) are marked active. 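Calls use total luciferase alone and ignore viability, so some active siRNAs may act by altering cell number.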 Entries without a mark were called inactive.

| total luciferase, z-score | total luciferase, % of control | luciferase per cell, z-score | viable cells, % of control | gene | PubChem SID |
| --- | --- | --- | --- | --- | --- |
| 0.671 | 95.2 | 0.918 | 83.5 | PPEF2 | SID160714716 |
| 0.884 | 99.5 | 0.245 | 104 | PPEF2 | SID160714717 |
| -0.64 | 69.2 | -0.993 | 100 | PPEF2 | SID160714718 |
| 1.59 | 113 | 0.919 | 99.5 | BAIAP2 | SID160728467 |
| -1.53 | 51.5 | -1.25 | 79.9 | BAIAP2 | SID160728468 |
| 1.54 | 112 | 2.72 | 61.5 | BAIAP2 | SID160728469 |
| -0.38 | 74.3 | 0.345 | 75.9 | GPR171 | SID160739275 |
| -1.52 | 51.7 | -1.2 | 79.1 | GPR171 | SID160739276 |
| 0.36 | 89 | 0.251 | 93.1 | GPR171 | SID160739277 |
| -0.334 | 75.2 | 0.206 | 79.6 | PGK1 | SID160750470 |
| -0.92 | 63.6 | -0.804 | 87.8 | PGK1 | SID160750575 |
| 1.32 | 108 | 0.167 | 116 | PGK1 | SID160750681 |
| 0.0819 | 83.5 | -0.0512 | 94.6 | GNB5 | SID160729036 |
| 1.73 | 116 | 2.22 | 72.3 | GNB5 | SID160729037 |
| 4.25 (active) | 166 | 2.23 | 103 | GNB5 | SID160729038 |
| 0.215 | 86.2 | -0.234 | 102 | GRHPR | SID160722084 |
| 1.21 | 106 | 1.18 | 86.6 | GRHPR | SID160722085 |
| 0.909 | 100 | 0.196 | 106 | GRHPR | SID160722086 |
| 1.16 | 105 | 1.99 | 69.4 | ZSWIM4 | SID160748299 |
| 0.444 | 90.7 | 0.364 | 92.1 | ZSWIM4 | SID160748300 |
| 0.862 | 99 | 0.249 | 104 | ZSWIM4 | SID160748302 |
| -0.425 | 73.4 | -0.655 | 97.5 | PAX8 | SID160719405 |
| 0.259 | 87 | 0.517 | 84.9 | PAX8 | SID160719406 |
| -0.572 | 70.5 | 0.0676 | 77.4 | PAX8 | SID160719407 |

Ordered by “total luciferase, z-score” (descending): 2 of the entries above.
| total luciferase, z-score | total luciferase, % of control | luciferase per cell, z-score | viable cells, % of control | gene | PubChem SID |
| --- | --- | --- | --- | --- | --- |
| -0.38 | 74.3 | 0.345 | 75.9 | GPR171 | SID160739275 |
| -1.52 | 51.7 | -1.2 | 79.1 | GPR171 | SID160739276 |
